From PubChem BioAssay AID248 (DTP/NCI, 2004)
The list does not hold the whole screen: it gathers tests that were run many times, whatever their T/C, doses with no T/C, and many T/C values between a quarter and a half above the control. Other doses and runs of a compound stand elsewhere. T/C is the treated group as % of the vehicle group. Some doses have a count of surviving animals in place of a T/C: the source holds a T/C of zero for them, seemingly a mark for toxic or unscored doses. Some survivor counts are full or nearly so, which does not show that the dose was tolerated: survival well below the control is almost never listed, so the zero probably covers shortened survival too. Counts of survivors are from the toxicity check (mostly the fifth day) where no day follows; animals may have died later. Schedule codes are those of the source, read here as Q, the interval in days (D) or hours (H), X, the number of doses. Some doses were run more than once; the results are listed from low to high. Some schedules carry Z or #; the key to these is not given. For survival time, this PubChem deposit counts one and a half times the control or more as active, and values a quarter to a half above the control carry no call in these data; other NCI protocols may use other cut-offs. Some T/C values carry the count of animals alive at the toxicity check (mostly the fifth day); where none is given, no animal had died by that day.

Test system: L1210 leukemia ip in BDF1 mice, survival T/C
Test: NCI In Vivo Anticancer Drug Screen. Data for tumor model L1210 Leukemia (intraperitoneal) in B6D2F1 (BDF1) mice
Conditions: T/C endpoint: mean survival time, higher T/C = longer survival

## O=NN(CCCl)C(=O)NCCCl
dose: 20.0 mg/kg/injection, schedule: Q01DX001 (ip), vehicle: saline, evaluated on day 45
  T/C: 377 % of control
dose: 20.0 mg/kg/injection, schedule: Q01DX001 (ip), vehicle: saline, evaluated on day 60
  T/C: 295, 498, 721 % of control
dose: 24.0 mg/kg/injection, schedule: Q## X Z (ip), vehicle: saline
  survivor count: 2 of 10 and 5 of 10
dose: 25.0 mg/kg/injection, schedule: Q01DX001 (ip), vehicle: saline, evaluated on day 30
  T/C: 188, 256, 285 % of control
dose: 25.0 mg/kg/injection, schedule: Q01DX001 (ip), vehicle: saline, evaluated on day 45
  T/C: 425 % of control
dose: 25.0 mg/kg/injection, schedule: Q01DX001 (ip), vehicle: saline, run until all animals had died
  T/C: 289 % of control
dose: 25.0 mg/kg/injection, schedule: Q01DX Z (ip), vehicle: carboxymethylcellulose (CMC)
  T/C: 127 % of control
dose: 27.0 mg/kg/injection, schedule: Q01DX001 (ip), vehicle: clinical formulation
  T/C: 348, 429, 462, 625 % of control
dose: 30.0 mg/kg/injection, schedule: Q01DX001 (ip), vehicle: saline + alcohol, evaluated on day 5
  T/C: 330 and 366 % of control
dose: 30.0 mg/kg/injection, schedule: Q01DX001 (ip), vehicle: saline + alcohol, evaluated on day 45
  T/C: 257, 442, 450, 460, 503 % of control
dose: 30.0 mg/kg/injection, schedule: Q01DX001 (ip), vehicle: saline + alcohol, evaluated on day 60
  T/C: 336, 530, 609, 625, 631, 666 % of control
dose: 30.0 mg/kg/injection, schedule: Q01DX001 (ip), vehicle: saline, evaluated on day 5
  T/C: 368 % of control
dose: 30.0 mg/kg/injection, schedule: Q01DX001 (ip), vehicle: saline, evaluated on day 30
  T/C: 308 and 382 % of control
dose: 30.0 mg/kg/injection, schedule: Q01DX001 (ip), vehicle: saline, evaluated on day 45
  T/C: 429 % of control
dose: 30.0 mg/kg/injection, schedule: Q01DX001 (ip), vehicle: saline, evaluated on day 60
  T/C: 368 % of control
dose: 31.0 mg/kg/injection, schedule: Q04DX002 (ip), vehicle: saline + alcohol
  T/C: 240, 281, 306, 326 % of control
dose: 32.0 mg/kg/injection, schedule: Q01DX009 (ip), vehicle: carboxymethylcellulose (CMC)
  survivor count: 9 of 10
dose: 32.0 mg/kg/injection, schedule: Q01DX009 (ip), vehicle: other
  survivor count: 9 of 10
dose: 32.0 mg/kg/injection, schedule: Q01DX009 (ip), vehicle: saline
  survivor count: 10 of 10
dose: 32.0 mg/kg/injection, schedule: Q01DX Z (iv), vehicle: saline
  T/C: 131 % of control
dose: 32.0 mg/kg/injection, schedule: Q#A X Z (oral), vehicle: saline
  survivor count: 6 of 6
dose: 39.0 mg/kg/injection, schedule: Q01DX001 (ip), vehicle: saline, evaluated on day 30
  T/C: 286 % of control
dose: 39.0 mg/kg/injection, schedule: Q01DX001 (ip), vehicle: saline, evaluated on day 45
  T/C: 494 % of control
dose: 39.0 mg/kg/injection, schedule: Q01DX001 (ip), vehicle: saline, run until all animals had died
  T/C: 284, 306, 379 % of control
dose: 40.0 mg/kg/injection, schedule: Q01DX001 (ip), vehicle: clinical formulation
  T/C: 540, 568, 573, 581 % of control
dose: 40.0 mg/kg/injection, schedule: Q01DX001 (ip), vehicle: saline + alcohol, evaluated on day 45
  T/C: 252, 294, 355, 408 % of control
dose: 40.0 mg/kg/injection, schedule: Q01DX001 (ip), vehicle: saline + alcohol, evaluated on day 60
  T/C: 389, 395, 441, 481, 577, 582, 641 % of control
dose: 40.0 mg/kg/injection, schedule: Q01DX001 (ip), vehicle: saline + alcohol
  survivor count: 10 of 10
dose: 42.6 mg/kg/injection, schedule: Q04DX003 (ip), vehicle: saline
  survivor count: 5 of 10
dose: 48.0 mg/kg/injection, schedule: Q01DX001 (ip), vehicle: Klucel (hydroxypropylcellulose) (HPC)
  T/C: 128 % of control
dose: 48.0 mg/kg/injection, schedule: Q01DX005 (ip), vehicle: saline
  survivor count: 9 of 10
dose: 48.0 mg/kg/injection, schedule: Q01DX005 (oral), vehicle: saline
  survivor count: 9 of 10
dose: 48.0 mg/kg/injection, schedule: Q01DX009 (ip), vehicle: saline
  survivor count: 10 of 10
dose: 48.0 mg/kg/injection, schedule: Q01DX009 (oral), vehicle: saline
  survivor count: 10 of 10
dose: 48.0 mg/kg/injection, schedule: Q01DX009 (sc), vehicle: saline
  survivor count: 10 of 10
dose: 48.0 mg/kg/injection, schedule: Q03DX Z (oral), vehicle: saline
  T/C: 131 % of control [5 of 6 alive]
dose: 50.0 mg/kg/injection, schedule: Q01DX Z (ip), vehicle: carboxymethylcellulose (CMC)
  survivor count: 6 of 6
dose: 59.0 mg/kg/injection, schedule: Q01DX001 (ip), vehicle: other
  T/C: 129 % of control
dose: 60.0 mg/kg/injection, schedule: Q01DX001 (ip), vehicle: clinical formulation
  T/C: 140, 195, 259, 416 % of control
dose: 64.0 mg/kg/injection, schedule: Q#A X Z (oral), vehicle: saline
  survivor count: 2 of 6
dose: 65.0 mg/kg/injection, schedule: Q01DX001 (ip), vehicle: saline
  survivor count: 10 of 10
dose: 75.0 mg/kg/injection, schedule: Q01DX001 (ip), vehicle: propolene glycol
  survivor count: 8 of 10
dose: 96.0 mg/kg/injection, schedule: Q01DX001 (ip), vehicle: saline
  survivor count: 8 of 10 and 10 of 10
dose: 96.0 mg/kg/injection, schedule: Q01DX001 (sc), vehicle: saline
  survivor count: 5 of 10
dose: 96.0 mg/kg/injection, schedule: Q01DX005 (ip), vehicle: saline
  survivor count: 0 of 10
dose: 96.0 mg/kg/injection, schedule: Q01DX005 (oral), vehicle: saline
  survivor count: 2 of 10
dose: 96.0 mg/kg/injection, schedule: Q01DX009 (ip), vehicle: saline
  survivor count: 0 of 10
dose: 96.0 mg/kg/injection, schedule: Q01DX009 (oral), vehicle: saline
  survivor count: 4 of 10
